Patent US7256257B2 (priority 2001, dated 2007)

Test: general procedure: solution-phase peptide synthesis; DEPC with triethylamine or diisopropylethylamine (general procedure C); DCC/DMAP

## N,N-dimethyl-L-valyl-N-[(1S,2R)-4-[(2S)-2-[(1R,2R)-3-[[(1R)-2-oxo-1-methyl-2-phenylethyl]amino]-1-methoxy-2-methyl-3-oxopropyl]-1-pyrrolidinyl]-2-methoxy-1-[(1S)-1-methylpropyl]-4-oxobutyl]-N-methyl-L-valinamide
Late stage modification step
  step yield: 64%

## N-methyl-L-valyl-N-[(1S,2R)-4-[(2g)-2-[(1R,2R)-3-[[(1R,2S)-2-hydroxy-1-methyl-2-phenylethyl]amino]-1-methoxy-2-methyl-3-oxopropyl]-1-pyrrolidinyl]-2-methoxy-1-[(1S)-1-methylpropyl]-4-oxobutyl]-N-methyl-L-valinamide
Late stage modification step
  step yield: 38%

## N-methyl-L-valyl-N-[(1S,2R)-4-[(2S)-2-[(1R,2R)-3-[[(1R,2S)-2-hydroxy-1-methyl-2-phenylethyl]amino]-1-methoxy-2-methyl-3-oxopropyl]-1-pyrrolidinyl]-2-methoxy-1-[(1S)-1-methylpropyl]-4-oxobutyl]-N-methyl-L-valinamide
Late stage modification step
  step yield: 95%

## N,N-dimethyl-L-valyl-N-[(1S,2R)-4-[(2S)-2-[(1R,2R)-3-[[(1R,2S)-2-hydroxy-1-methyl-2-phenylethyl]amino]-1-methoxy-2-methyl-3-oxopropyl]-1-pyrrolidinyl]-2-methoxy-1-[(1S)-1-methylpropyl]-4-oxobutyl]-N-methyl-L-isoleucinamide
Coupling step
  step yield: 60%
